{"source": "paper PMC3688503", "about": "(2013)", "key": {"[1]": {"molecular_target": "T1, MTM1-GST (human myotubularin full-length protein as a GST fusion protein) (human) (UniProt Q13496)", "T1 sequence": "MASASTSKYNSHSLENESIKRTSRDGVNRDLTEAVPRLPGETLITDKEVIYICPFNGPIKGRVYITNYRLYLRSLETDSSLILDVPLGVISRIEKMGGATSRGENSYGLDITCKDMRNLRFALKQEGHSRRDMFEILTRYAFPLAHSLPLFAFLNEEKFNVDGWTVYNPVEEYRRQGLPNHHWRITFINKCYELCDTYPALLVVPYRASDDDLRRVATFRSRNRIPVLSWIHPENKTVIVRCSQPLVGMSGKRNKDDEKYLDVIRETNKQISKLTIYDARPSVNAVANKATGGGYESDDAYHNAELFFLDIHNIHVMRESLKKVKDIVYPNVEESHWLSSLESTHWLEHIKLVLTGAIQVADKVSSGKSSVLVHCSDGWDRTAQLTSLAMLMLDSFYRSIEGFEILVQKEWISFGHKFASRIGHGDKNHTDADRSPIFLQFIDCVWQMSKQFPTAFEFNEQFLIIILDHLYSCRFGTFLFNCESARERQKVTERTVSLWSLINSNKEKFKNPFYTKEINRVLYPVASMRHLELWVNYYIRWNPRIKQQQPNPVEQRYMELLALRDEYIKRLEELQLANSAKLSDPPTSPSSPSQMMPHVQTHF", "test": "pull-down; MTM1-GST or GST bound to glutathione beads, incubated with in vitro translated MTMR12-B10 diluted in Co-IP buffer (50 mM Tris-Cl pH 7.5, 100 mM NaCl, 5 mM EDTA, 5 mM EGTA, 1 mM DTT, 0.5% Triton X-100, 2 mM PMSF); only the target purified"}, "[2]": {"molecular_target": "T2, MTM1 (myotubularin, over-expressed from pcDNA3.1-MTM1) (human) (UniProt Q13496)", "T2 sequence": "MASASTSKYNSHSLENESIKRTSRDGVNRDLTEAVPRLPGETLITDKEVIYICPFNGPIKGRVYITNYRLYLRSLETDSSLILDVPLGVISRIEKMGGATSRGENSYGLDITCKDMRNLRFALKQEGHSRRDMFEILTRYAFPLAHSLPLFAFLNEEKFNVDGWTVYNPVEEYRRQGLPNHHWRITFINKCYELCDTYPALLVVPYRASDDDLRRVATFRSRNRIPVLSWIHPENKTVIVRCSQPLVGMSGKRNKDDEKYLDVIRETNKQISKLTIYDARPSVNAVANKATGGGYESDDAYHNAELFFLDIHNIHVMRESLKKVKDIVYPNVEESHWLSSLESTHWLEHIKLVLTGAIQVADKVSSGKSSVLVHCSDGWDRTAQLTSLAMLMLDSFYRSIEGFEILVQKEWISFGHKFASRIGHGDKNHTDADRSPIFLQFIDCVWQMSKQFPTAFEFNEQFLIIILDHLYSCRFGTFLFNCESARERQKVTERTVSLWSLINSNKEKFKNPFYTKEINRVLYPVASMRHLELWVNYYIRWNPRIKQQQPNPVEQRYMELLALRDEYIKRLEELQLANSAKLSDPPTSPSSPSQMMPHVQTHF", "test": "co-IP; MTM1 and MTMR12-B10 over-expressed in Cos1 cells (methods: Cos7); extracts immunoprecipitated with anti-myotubularin monoclonal 1G1; controls IgG and empty beads"}, "[3]": {"molecular_target": "T3, myotubularin, endogenous in murine skeletal muscle (tibialis anterior) (mouse (endogenous in tibialis anterior muscle)) (UniProt Q9Z2C5)", "T3 sequence": "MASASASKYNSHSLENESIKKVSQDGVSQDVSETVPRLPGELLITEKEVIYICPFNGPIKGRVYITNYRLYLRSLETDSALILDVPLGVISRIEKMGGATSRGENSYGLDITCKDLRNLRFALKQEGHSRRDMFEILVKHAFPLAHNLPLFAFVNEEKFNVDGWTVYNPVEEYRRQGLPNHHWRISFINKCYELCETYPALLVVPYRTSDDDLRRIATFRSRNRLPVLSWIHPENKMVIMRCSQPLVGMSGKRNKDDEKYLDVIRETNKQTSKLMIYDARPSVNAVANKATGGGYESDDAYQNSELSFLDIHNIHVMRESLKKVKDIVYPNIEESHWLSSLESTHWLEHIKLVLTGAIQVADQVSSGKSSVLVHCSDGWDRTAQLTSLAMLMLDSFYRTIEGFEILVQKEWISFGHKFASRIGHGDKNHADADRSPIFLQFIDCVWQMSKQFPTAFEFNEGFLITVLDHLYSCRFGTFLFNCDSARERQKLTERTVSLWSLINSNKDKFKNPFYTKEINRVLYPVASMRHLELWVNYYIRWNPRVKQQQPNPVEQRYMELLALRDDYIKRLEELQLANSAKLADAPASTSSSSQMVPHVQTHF", "test": "co-IP; endogenous proteins, fresh murine tibialis anterior muscle lysate in co-IP buffer with 0.05% SDS; immunoprecipitated with anti-myotubularin monoclonal 1G1, 4 C; last wash with 300 mM NaCl; controls IgG and empty beads"}, "[4]": {"molecular_target": "T4, wild-type MTM1-B10 fusion protein (human) (UniProt Q13496)", "T4 sequence": "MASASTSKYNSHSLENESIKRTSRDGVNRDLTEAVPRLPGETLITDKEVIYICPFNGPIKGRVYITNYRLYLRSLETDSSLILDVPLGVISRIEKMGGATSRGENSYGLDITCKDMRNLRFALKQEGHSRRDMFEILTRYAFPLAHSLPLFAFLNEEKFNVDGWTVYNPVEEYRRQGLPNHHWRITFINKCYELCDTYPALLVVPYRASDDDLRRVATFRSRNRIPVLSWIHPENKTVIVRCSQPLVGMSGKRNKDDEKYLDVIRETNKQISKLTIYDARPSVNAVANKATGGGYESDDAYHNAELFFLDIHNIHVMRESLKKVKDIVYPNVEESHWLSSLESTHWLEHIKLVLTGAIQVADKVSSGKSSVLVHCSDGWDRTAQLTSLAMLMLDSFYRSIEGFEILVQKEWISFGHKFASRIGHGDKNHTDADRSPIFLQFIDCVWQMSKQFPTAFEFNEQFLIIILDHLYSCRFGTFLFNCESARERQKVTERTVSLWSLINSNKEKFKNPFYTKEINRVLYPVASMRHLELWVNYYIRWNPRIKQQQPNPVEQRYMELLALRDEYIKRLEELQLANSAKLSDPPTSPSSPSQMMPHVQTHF", "test": "co-IP; wild-type or mutant MTM1-B10 co-expressed with MTMR12-GFP in Cos1 cells (text and methods: Cos7); immunoprecipitated with anti-B10 tag antibody (text: a myotubularin specific antibody)"}}, "note": "Results are given in words; binding and its absence hold for the method and conditions named. Binding seen in cells or lysates may run through a third protein. Some results given as binding are weak or reduced against the parent protein; the word gives no strength. For some of these results: Tags and fused reporters may be left off the sequences shown."}
{"binder": "MTMR12-B10 (in vitro synthesized MTMR12 protein with a B10 tag) (protein, UniProt Q9C0I1 1-747) MLGKGVVGGGGGTKAPKPSFVSYVRPEEIHTNEKEVTEKEVTLHLLPGEQLLCEASTVLKYVQEDSCQHGVYGRLVCTDFKIAFLGDDESALDNDETQFKNKVIGENDITLHCVDQIYGVFDEKKKTLFGQLKKYPEKLIIHCKDLRVFQFCLRYTKEEEVKRIVSGIIHHTQAPKLLKRLFLFSYATAAQNNTVTDPKNHTVMFDTLKDWCWELERTKGNMKYKAVSVNEGYKVCERLPAYFVVPTPLPEENVQRFQGHGIPIWCWSCHNGSALLKMSALPKEQDDGILQIQKSFLDGIYKTIHRPPYEIVKTEDLSSNFLSLQEIQTAYSKFKQLFLIDNSTEFWDTDIKWFSLLESSSWLDIIRRCLKKAIEITECMEAQNMNVLLLEENASDLCCLISSLVQLMMDPHCRTRIGFQSLIQKEWVMGGHCFLDRCNHLRQNDKEEVPVFLLFLDCVWQLVHQHPPAFEFTETYLTVLSDSLYIPIFSTFFFNSPHQKDTNMGREGQDTQSKPLNLLTVWDWSVQFEPKAQTLLKNPLYVEKPKLDKGQRKGMRFKHQRQLSLPLTQSKSSPKRGFFREETDHLIKNLLGKRISKLINSSDELQDNFREFYDSWHSKSTDYHGLLLPHIEGPEIKVWAQRYLRWIPEAQILGGGQVATLSKLLEMMEEVQSLQEKIDERHHSQQAPQAEAPCLLRNSARLSSLFPFALLQRHSSKPVLPTSGWKALGDEDDLAKREDEFVDLGDV", "values": [{"measurement": "binding", "setting": "[1]", "value": "binds"}]}
{"binder": "MTMR12-B10 (over-expressed in Cos1 cells) (protein, UniProt Q9C0I1 1-747) MLGKGVVGGGGGTKAPKPSFVSYVRPEEIHTNEKEVTEKEVTLHLLPGEQLLCEASTVLKYVQEDSCQHGVYGRLVCTDFKIAFLGDDESALDNDETQFKNKVIGENDITLHCVDQIYGVFDEKKKTLFGQLKKYPEKLIIHCKDLRVFQFCLRYTKEEEVKRIVSGIIHHTQAPKLLKRLFLFSYATAAQNNTVTDPKNHTVMFDTLKDWCWELERTKGNMKYKAVSVNEGYKVCERLPAYFVVPTPLPEENVQRFQGHGIPIWCWSCHNGSALLKMSALPKEQDDGILQIQKSFLDGIYKTIHRPPYEIVKTEDLSSNFLSLQEIQTAYSKFKQLFLIDNSTEFWDTDIKWFSLLESSSWLDIIRRCLKKAIEITECMEAQNMNVLLLEENASDLCCLISSLVQLMMDPHCRTRIGFQSLIQKEWVMGGHCFLDRCNHLRQNDKEEVPVFLLFLDCVWQLVHQHPPAFEFTETYLTVLSDSLYIPIFSTFFFNSPHQKDTNMGREGQDTQSKPLNLLTVWDWSVQFEPKAQTLLKNPLYVEKPKLDKGQRKGMRFKHQRQLSLPLTQSKSSPKRGFFREETDHLIKNLLGKRISKLINSSDELQDNFREFYDSWHSKSTDYHGLLLPHIEGPEIKVWAQRYLRWIPEAQILGGGQVATLSKLLEMMEEVQSLQEKIDERHHSQQAPQAEAPCLLRNSARLSSLFPFALLQRHSSKPVLPTSGWKALGDEDDLAKREDEFVDLGDV", "values": [{"measurement": "binding", "setting": "[2]", "value": "binds"}]}
{"binder": "MTMR12, endogenous in murine skeletal muscle (tibialis anterior) (protein, UniProt Q80TA6 1-747) MLGKGGVGGGGGTKAPKPSFVSYVRPEEIHTDEKEVTEKEVTLHLLPGEQLLCEASTVLKYVQEDSCQRGVYGRLVCTDFKISFLGDEDSALDNGGEAQFKNKIIGVNDVPLHCVDQIYGVFDEKKKPLFGQLKKYPEKLVIHCKDLRVLHFCLRYTKEEEVKRIVSGIIHHTQSPKLLKRLFLFSYAAAVHGTATDSRNCTVMFDTPKDWCWELERTKGSVKYRTVSVNEGYRVSDRLPAYFVVPTPLPEDDVRRFQGHGIPIWCWSCHNGSALLKMSALPKEQDDGALQVQKSFLDGIYKTIHRPPYEMVKTEDLSSNFLSLQEIQSAYCKFKQLFLIDNSSEFWDTDIKWFSLLESSSWLDIIRRCLKKAIEITECLEAQNVNVLLLEENASDLCCLLSSLVQVMMDAHCRTRTGFQSLIQKEWVMGGHSFLDRCNHLHQSDKEEVPIFLLFLDCVWQLVHQYPPAFEFTETYLTVLSDSLYIPIFSTFFFNSPHQKDTNMGRENLDAQSKPLTLLTVWDWSVQFEPKAQTLLRNPLYVEKPKLDRGQQKGSRFKHQRQLSLPLTQSKSSPKRGFFREETDHLIKNLLGKRISKLINSSDDLQDSSREFYDSWHSKPTDYHGLLLPHIEGPEIKVWAQRYLRWIPEAQILGGGRVATMGKLLEMMEEVQSLQEKIEARHHRQEAVHAEAPGLLRNSVRLSSLFPFALLQRHSAKPVLPTSGWKALGGEDDLAKREDEFVDLGDV", "values": [{"measurement": "binding", "setting": "[3]", "value": "binds"}]}
{"binder": "wild-type MTMR12-GFP protein (protein, UniProt Q9C0I1 1-747) MLGKGVVGGGGGTKAPKPSFVSYVRPEEIHTNEKEVTEKEVTLHLLPGEQLLCEASTVLKYVQEDSCQHGVYGRLVCTDFKIAFLGDDESALDNDETQFKNKVIGENDITLHCVDQIYGVFDEKKKTLFGQLKKYPEKLIIHCKDLRVFQFCLRYTKEEEVKRIVSGIIHHTQAPKLLKRLFLFSYATAAQNNTVTDPKNHTVMFDTLKDWCWELERTKGNMKYKAVSVNEGYKVCERLPAYFVVPTPLPEENVQRFQGHGIPIWCWSCHNGSALLKMSALPKEQDDGILQIQKSFLDGIYKTIHRPPYEIVKTEDLSSNFLSLQEIQTAYSKFKQLFLIDNSTEFWDTDIKWFSLLESSSWLDIIRRCLKKAIEITECMEAQNMNVLLLEENASDLCCLISSLVQLMMDPHCRTRIGFQSLIQKEWVMGGHCFLDRCNHLRQNDKEEVPVFLLFLDCVWQLVHQHPPAFEFTETYLTVLSDSLYIPIFSTFFFNSPHQKDTNMGREGQDTQSKPLNLLTVWDWSVQFEPKAQTLLKNPLYVEKPKLDKGQRKGMRFKHQRQLSLPLTQSKSSPKRGFFREETDHLIKNLLGKRISKLINSSDELQDNFREFYDSWHSKSTDYHGLLLPHIEGPEIKVWAQRYLRWIPEAQILGGGQVATLSKLLEMMEEVQSLQEKIDERHHSQQAPQAEAPCLLRNSARLSSLFPFALLQRHSSKPVLPTSGWKALGDEDDLAKREDEFVDLGDV", "values": [{"measurement": "binding", "setting": "[4]", "value": "binds"}]}
